Assay results

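Malaria parasite (P. falciparum) lines kept in red blood cells; parasite DNA is measured by SYBR Green fluorescence after lysis, 72 h after compound addition.
Each compound was titrated across a series from about 0.000037 to 29 µM.
The number is the fitted AC50, the concentration giving a half-maximal change in signal; a lower value means higher potency, whether the curve shows a decrease or an increase.
Calls follow the curve class and fit quality: every row here is inconclusive, covering signal-raising curves and weak, poorly fitted, partial or highest-dose-only inhibition curves.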

Values are in µM.
All entries here are filed as inconclusive.
These entries are mostly ones the record files as inconclusive; other results of the assay are not listed here.
Potencies fitted to partial, single-point or poorly fitting curves are rough.
The first word of each remark tells which way the curve ran; it can be opposite to the aim of the assay.

SMILES	setting	Potency (µM)	curve
C=C1c2cccc(O)c2C(O)=C2C(=O)[C@@]3(O)C(O)=C(C(N)=O)C(=O)[C@@H](N(C)C)[C@@H]3[C@@H](O)[C@H]12	W2	5.726	inhibitor, single point
C=C1c2cccc(O)c2C(O)=C2C(=O)[C@@]3(O)C(O)=C(C(N)=O)C(=O)[C@@H](N(C)C)[C@@H]3[C@@H](O)[C@H]12	P93_24	10	inhibitor, single point
C=C1c2cccc(O)c2C(O)=C2C(=O)[C@@]3(O)C(O)=C(C(N)=O)C(=O)[C@@H](N(C)C)[C@@H]3[C@@H](O)[C@H]12	HB3	3.981	inhibitor, partial curve
C=C1c2cccc(O)c2C(O)=C2C(=O)[C@@]3(O)C(O)=C(C(N)=O)C(=O)[C@@H](N(C)C)[C@@H]3[C@@H](O)[C@H]12	CP260	1.413	inhibitor, partial curve
C=C1c2cccc(O)c2C(O)=C2C(=O)[C@@]3(O)C(O)=C(C(N)=O)C(=O)[C@@H](N(C)C)[C@@H]3[C@@H](O)[C@H]12	CP335	8.087	inhibitor, single point
C=C1c2cccc(O)c2C(O)=C2C(=O)[C@@]3(O)C(O)=C(C(N)=O)C(=O)[C@@H](N(C)C)[C@@H]3[C@@H](O)[C@H]12	CP237	10	inhibitor, single point
CCCc1nc(C)c2c(=O)[nH]c(-c3cc(S(=O)(=O)N4CCN(CC)CC4)ccc3OCC)nn12	ECU	11.22	inhibitor, single point
CCCc1nc(C)c2c(=O)[nH]c(-c3cc(S(=O)(=O)N4CCN(CC)CC4)ccc3OCC)nn12	N140	17.78	inhibitor, single point
CCCc1nc(C)c2c(=O)[nH]c(-c3cc(S(=O)(=O)N4CCN(CC)CC4)ccc3OCC)nn12	HB3	12.59	inhibitor, partial curve
CCCc1nc(C)c2c(=O)[nH]c(-c3cc(S(=O)(=O)N4CCN(CC)CC4)ccc3OCC)nn12	AS120	14.13	inhibitor, single point
CCCc1nc(C)c2c(=O)[nH]c(-c3cc(S(=O)(=O)N4CCN(CC)CC4)ccc3OCC)nn12	CP260	17.78	inhibitor, single point
CCCc1nc(C)c2c(=O)[nH]c(-c3cc(S(=O)(=O)N4CCN(CC)CC4)ccc3OCC)nn12	SC27B	12.59	inhibitor, single point
CCCc1nc(C)c2c(=O)[nH]c(-c3cc(S(=O)(=O)N4CCN(CC)CC4)ccc3OCC)nn12	TAB165	11.22	inhibitor, single point
CCCc1nc(C)c2c(=O)[nH]c(-c3cc(S(=O)(=O)N4CCN(CC)CC4)ccc3OCC)nn12	PC49	12.59	inhibitor, single point
CCCc1nc(C)c2c(=O)[nH]c(-c3cc(S(=O)(=O)N4CCN(CC)CC4)ccc3OCC)nn12	DIV30	5.358	inhibitor, partial curve, poor fit
CCCc1nc(C)c2c(=O)[nH]c(-c3cc(S(=O)(=O)N4CCN(CC)CC4)ccc3OCC)nn12	CP286	11.22	inhibitor, single point
CCCc1nc(C)c2c(=O)[nH]c(-c3cc(S(=O)(=O)N4CCN(CC)CC4)ccc3OCC)nn12	AA1029	4.467	inhibitor, partial curve
CCCc1nc(C)c2c(=O)[nH]c(-c3cc(S(=O)(=O)N4CCN(CC)CC4)ccc3OCC)nn12	CP297	0.0239	inhibitor, full curve, poor fit
CCCc1nc(C)c2c(=O)[nH]c(-c3cc(S(=O)(=O)N4CCN(CC)CC4)ccc3OCC)nn12	PC15	10	inhibitor, single point
CCCc1nc(C)c2c(=O)[nH]c(-c3cc(S(=O)(=O)N4CCN(CC)CC4)ccc3OCC)nn12	CP237	12.59	inhibitor, partial curve, poor fit
CCCc1nc(C)c2c(=O)[nH]c(-c3cc(S(=O)(=O)N4CCN(CC)CC4)ccc3OCC)nn12	PAD	12.59	inhibitor, single point
CCCc1nc(C)c2c(=O)[nH]c(-c3cc(S(=O)(=O)N4CCN(CC)CC4)ccc3OCC)nn12	CP266	0.0107	inhibitor, full curve, poor fit
CCCc1nc(C)c2c(=O)[nH]c(-c3cc(S(=O)(=O)N4CCN(CC)CC4)ccc3OCC)nn12	W2	16.94	inhibitor, single point
CN1CCN(CC(=O)N2c3ccccc3C(=O)Nc3cccnc32)CC1	CP266	0.0135	activator
CN1CCN(CC(=O)N2c3ccccc3C(=O)Nc3cccnc32)CC1	CP297	0.0024	inhibitor, full curve, poor fit
CC[C@@H](CO)NC(=O)[C@@H]1C=C2c3cccc4[nH]cc(c34)C[C@H]2N(C)C1	CP335	3.013	inhibitor, single point
CC[C@@H](CO)NC(=O)[C@@H]1C=C2c3cccc4[nH]cc(c34)C[C@H]2N(C)C1	7G8	17.78	inhibitor, single point
CC[C@@H](CO)NC(=O)[C@@H]1C=C2c3cccc4[nH]cc(c34)C[C@H]2N(C)C1	CP192	15.1	inhibitor, single point
Nc1ccc2cc3ccc(N)cc3nc2c1	CP203	15.1	inhibitor, single point
Nc1ccc2cc3ccc(N)cc3nc2c1	CP194	19.01	inhibitor, single point
Nc1ccc2cc3ccc(N)cc3nc2c1	PC15	17.78	inhibitor, single point
Nc1ccc2cc3ccc(N)cc3nc2c1	HB3	10	inhibitor, single point
Nc1ccc2cc3ccc(N)cc3nc2c1	C2A	10	inhibitor, single point
Nc1ccc2cc3ccc(N)cc3nc2c1	CP201	16.94	inhibitor, single point
Nc1ccc2cc3ccc(N)cc3nc2c1	N140	17.78	inhibitor, single point
Nc1ccc2cc3ccc(N)cc3nc2c1	CP268	13.46	inhibitor, single point
Nc1ccc2cc3ccc(N)cc3nc2c1	CP238	11.22	inhibitor, single point
Nc1ccc2cc3ccc(N)cc3nc2c1	CP211	19.01	inhibitor, single point
Nc1ccc2cc3ccc(N)cc3nc2c1	CP315	16.94	inhibitor, single point
Nc1ccc2cc3ccc(N)cc3nc2c1	P93_24	11.22	inhibitor, single point
Nc1ccc2cc3ccc(N)cc3nc2c1	TAB113	17.78	inhibitor, single point
Nc1ccc2cc3ccc(N)cc3nc2c1	AS120	17.78	inhibitor, single point
Nc1ccc2cc3ccc(N)cc3nc2c1	SC27B	17.78	inhibitor, single point
Nc1ccc2cc3ccc(N)cc3nc2c1	CP291	13.46	inhibitor, single point
Nc1ccc2cc3ccc(N)cc3nc2c1	CP266	16.94	inhibitor, single point
Nc1ccc2cc3ccc(N)cc3nc2c1	TAB165	10	inhibitor, single point
Nc1ccc2cc3ccc(N)cc3nc2c1	CP185	17.78	inhibitor, single point
Nc1ccc2cc3ccc(N)cc3nc2c1	DFO2036	17.78	inhibitor, single point

4 of the entries, repeated:

* C=C1c2cccc(O)c2C(O)=C2C(=O)[C@@]3(O)C(O)=C(C(N)=O)C(=O)[C@@H](N(C)C)[C@@H]3[C@@H](O)[C@H]12 [HB3] : Potency 3.981 µM (inhibitor, partial curve)
* Nc1ccc2cc3ccc(N)cc3nc2c1 [AS120] : Potency 17.78 µM (inhibitor, single point)
* CCCc1nc(C)c2c(=O)[nH]c(-c3cc(S(=O)(=O)N4CCN(CC)CC4)ccc3OCC)nn12 [PC15] : Potency 10 µM (inhibitor, single point)
* Nc1ccc2cc3ccc(N)cc3nc2c1 [CP266] : Potency 16.94 µM (inhibitor, single point)

Source: PubChem BioAssay AID504749 (NCATS, 2011).